{"source": "patent US11167133B2", "about": "“Intratumoral modulation therapy” (LONDON HEALTH SCIENCES CENTRE RESEARCH INC., priority 2015, dated 2021)", "tested_on": "primary patient GBM cells", "test": "Annexin V / propidium iodide flow cytometry of apoptotic and dead cells", "type": "cell-based, human", "conditions": "Example 2, TMZ with high frequency IMT (200 kHz), 72 h", "description": "This study was approved by the Research Ethics Board at the University of Western Ontario (Approval #17290). GBM specimens were obtained at the time of operative resection and placed immediately into phosphate-buffered saline (PBS) with 0.5% fetal bovine serum (FBS; Life Technologies, Burlington, ON, Canada). The tissue was washed, digested and filtered through a 100-μm cell strainer. Samples were then centrifuged and resuspended in Dulbecco's modified Eagle's medium (DMEM; Wisent Bioproducts, St. Bruno, PQ, Canada) supplemented with 10% FBS, 1% non-essential amino acids and 1% penicillin/streptomycin (Life Technologies) before plating to a 35-mm dish for 30 min to allow blood cells to separate. […]\nAn Annexin V Apoptosis Detection Kit with propidium iodide (PI; BioLegend, San Diego, Calif., USA) was used for identification of apoptotic and dead cells, as per the manufacturer's instructions. Cell fractions were analyzed using a Becton Dickinson LSR II SORP flow cytometer running FACSDiva software (BD Biosciences, Mississauga, ON, Canada). […] The populations of annexin V+/PI−, annexin V+/PI+, annexin V−/PI+ and annexin V−/PI− were then calculated with quadrant gates. […] Data were analyzed using FlowJo v 9.6.3 (TreeStar, Inc., Ashland, Oreg., USA).", "note": "At least one compound was matched to its structure with a doubt left.", "data": [{"molecule": "Cn1nnc2c(C(N)=O)ncn2c1=O", "note": "[temozolomide]", "values": [{"measurement": "proportions of live and apoptotic/dead GBM cells (FIG. 22)", "result": "reversed major proportions of live and apoptotic/dead cells compared to the other groups"}]}]}
